Results: patent US8258094B2, “Analogs of ghrelin” (IPSEN Pharma S.A.S., priority 2005, dated 2012)
At least one peptide structure holds a part that was inferred or is arguable (an end, a ring closure or a residue).

Chains of the proteins cited; added tags and fusions are not shown.
UniProt Q92847, whole entry: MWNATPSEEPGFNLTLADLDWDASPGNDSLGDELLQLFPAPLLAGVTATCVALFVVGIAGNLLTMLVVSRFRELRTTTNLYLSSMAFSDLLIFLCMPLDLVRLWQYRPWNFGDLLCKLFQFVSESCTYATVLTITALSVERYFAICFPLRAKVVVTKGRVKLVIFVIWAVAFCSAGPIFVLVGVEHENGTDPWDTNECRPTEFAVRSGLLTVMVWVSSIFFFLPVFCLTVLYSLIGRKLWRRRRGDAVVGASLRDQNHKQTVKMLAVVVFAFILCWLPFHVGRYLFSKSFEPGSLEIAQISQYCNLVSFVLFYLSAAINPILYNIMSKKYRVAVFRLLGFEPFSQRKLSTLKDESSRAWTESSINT

Biological target: T1, human GSH receptor (Homo sapiens, UniProt Q92847)
T1 construct: The full length human GHS-R was subcloned into the mammalian expression vector pcDNA 3.1; expressed in transfected cells; pcDNA 3.1 vector
Experiment: In vitro GSH receptor mediated intracellular iCa2+ mobilization
Format: cell-based
Settings: CHO-K1 cells expressing the human GSH receptor, Fura-2AM, 37° C.

Row | SMILES | activity at the ghrelin receptor (intracellular Ca2+ mobilization)
1 | CCCCCCNC(=O)CC[C@H](NC(=O)[C@H](CCCCN)NC(=O)[C@H](CCCNC(=N)N)NC(=O)[C@H](CCC(N)=O)NC(=O)[C@H](CCC(N)=O)NC(=O)[C@@H](NC(=O)[C@H](CCCNC(=N)N)NC(=O)[C@H](CCC(N)=O)NC(=O)[C@H](Cc1c[nH]cn1)NC(=O)[C@H](CCC(=O)O)NC(=O)[C@@H]1CCCN1C(=O)[C@H](CO)NC(=O)[C@H](CC(C)C)NC(=O)[C@H](Cc1ccccc1)NC(=O)[C@H](CCC(=O)NCCCCCC)NC(=O)C(C)(C)NC(=O)CNC(C)=O)C(C)C)C(=O)N[C@@H](CO)C(=O)N[C@@H](CCCCN)C(=O)N[C@@H](CCCCN)C(=O)N1CCC[C@H]1C(=O)N1CCC[C@H]1C(=O)N[C@@H](C)C(=O)N[C@@H](CCCCN)C(=O)N[C@@H](CC(C)C)C(=O)N[C@@H](CCC(N)=O)C(=O)N1CCC[C@H]1C(=O)N[C@@H](CCCNC(=N)N)C(N)=O [Example 124, (Ac-Gly^1,Aib^2,Glu(NH-hexyl)^3,17)hGhrelin(1-28)-NH2] | antagonistic activity
2 | CCCCCCNC(=O)CC[C@H](NC(=O)[C@H](CCCCN)NC(=O)[C@H](CCCNC(=N)N)NC(=O)[C@H](CCC(N)=O)NC(=O)[C@H](CCC(N)=O)NC(=O)[C@@H](NC(=O)[C@H](CCCNC(=N)N)NC(=O)[C@H](CCC(N)=O)NC(=O)[C@H](Cc1c[nH]cn1)NC(=O)C(C)(C)NC(=O)[C@@H]1CCCN1C(=O)[C@H](CO)NC(=O)[C@H](CC(C)C)NC(=O)[C@H](Cc1ccccc1)NC(=O)[C@H](CCC(=O)NCCCCCC)NC(=O)C(C)(C)NC(=O)CNC(C)=O)C(C)C)C(=O)N[C@@H](CO)C(=O)N[C@@H](CCCCN)C(=O)N[C@@H](CCCCN)C(=O)N1CCC[C@H]1C(=O)N1CCC[C@H]1C(=O)N[C@@H](C)C(=O)N[C@@H](CCCCN)C(=O)N[C@@H](CC(C)C)C(=O)N[C@@H](CCC(N)=O)C(=O)N1CCC[C@H]1C(=O)N[C@@H](CCCNC(=N)N)C(N)=O [Example 136, (Ac-Gly^1,Aib^2,8,Glu(NH-hexyl)^3,17)hGhrelin(1-28)-NH2] | antagonistic activity
